Experimental data: publication PMC10850085 (Nature Communications, 2024)

Amino acid sequences for entries named in this document (tags omitted). A change or cut given only in a name is not applied to a line headed by its entry.
UniProt Q08351: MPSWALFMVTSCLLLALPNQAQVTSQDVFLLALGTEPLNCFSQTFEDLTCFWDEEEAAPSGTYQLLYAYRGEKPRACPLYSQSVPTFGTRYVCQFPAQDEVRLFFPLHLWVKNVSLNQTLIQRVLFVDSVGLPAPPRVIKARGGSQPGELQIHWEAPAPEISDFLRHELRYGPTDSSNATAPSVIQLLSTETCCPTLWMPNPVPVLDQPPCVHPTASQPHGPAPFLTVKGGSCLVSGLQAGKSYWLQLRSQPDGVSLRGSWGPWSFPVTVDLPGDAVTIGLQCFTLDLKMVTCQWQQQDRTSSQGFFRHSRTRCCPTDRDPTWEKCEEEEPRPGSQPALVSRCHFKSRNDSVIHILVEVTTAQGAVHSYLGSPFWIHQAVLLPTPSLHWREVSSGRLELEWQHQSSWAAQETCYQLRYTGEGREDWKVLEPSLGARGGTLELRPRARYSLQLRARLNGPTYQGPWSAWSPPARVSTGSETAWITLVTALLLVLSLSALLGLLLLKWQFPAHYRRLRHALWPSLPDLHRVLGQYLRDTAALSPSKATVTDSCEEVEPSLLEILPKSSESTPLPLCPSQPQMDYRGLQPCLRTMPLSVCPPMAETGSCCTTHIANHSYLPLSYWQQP

Molecular target: T1, peptide version of romiplostim (two copies of … connected by a GG linker)
T1 sequence (peptide, N-terminal biotin moiety): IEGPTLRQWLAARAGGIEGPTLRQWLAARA
Assay: SPR; TpoR (monomeric, dimeric or mutants) as analyte over N-terminally biotinylated romiplostim peptides on streptavidin chips; HBS-EP; two-fold dilution series, highest 100 nM; both purified

| Substance | binding |
| --- | --- |
| murine TpoR (F104S) (from UniProt Q08351) (receptor) | no binding |
| murine TpoR (F105A) (from UniProt Q08351) (receptor) | binds |

No constants are given. Whether binding was seen depends on the method and setting. Binding can be weak; no strength is given.
